The subject of the data set is NF90long + NF45. Kind of data set: SEC-SAXS; mass photometry. The following applies: 18-bp complex formation: 30 min on ice, SEC in 20 mM HEPES pH 7.5, 150 mM NaCl, 1 mM DTT; mass photometry at 10-50 nM protein; recombinant protein. A general note: In gel filtration, larger molecules generally elute earlier.

Construct, isoform or probe ends are uncertain for at least one entry. At least one verdict was read from the data and is not stated in words by the source.

Consider “UCACUUUCAUAAUGCUGGUCACUUUCAUAAUGCUGG / CCAGCAUUAUGAAAGUGACCAGCAUUAUGAAAGUGA [36-bp dsRNA (SAXS)]”, for which the binding result is “binds”.

For the origin of these results see publication PMC11952958.
